This series is described as follows: in vitro. Conditions: human, Caco-2.

By Papp A→B is commonly meant the apparent permeability from the apical to the basolateral side of a cell layer. A high value points to ready permeation. Take `CC(C)NCC(O)COc1ccc(CC(N)=O)cc1` (stereo not shown) [Atenolol]: the Papp A→B at 1 μM was 0.48 ± 0.09 ×10⁻⁶ cm/s.
